Data as given in PubChem BioAssay AID493246 (Drosophila RNAi Screening Center, 2011)

- Test: 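Genome-wide search for dsRNAs that reduce cell number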 (primary screen)
- Cell system: Drosophila Kc and S2R+ cells
- Reagent: long dsRNA against Drosophila genes
- Read-out: 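Raw, unnormalised count of remaining cells in each well; per-plate z-scores of cell number underlie the calls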
- Direction: Kc cell number and S2R+ cell number: higher = more cells remaining
- Hit rule: 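Counted as a hit if cell number falls by a z-score of at least 3 within its plate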
The deposit covers about 21,000 reagents; below is an unselected part of those with a known target gene and a result. In the full data, 429 (2%) are marked active. 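Values are raw and not normalised between plates; calls rest on per-plate z-scores that were not deposited.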 Entries without a mark were called inactive. A plus sign joins genes that one reagent is predicted to hit. Not stated in the record: the amount of reagent, the time to read-out.

The first 3 entries as a preview:
gene	amplicon	Kc cell number, rep 1	Kc cell number, rep 2	S2R+ cell number, rep 1	S2R+ cell number, rep 2
Rim2	DRSC00073	1.58e6	1.57e6	1.10e6	1.23e6
Rim2	DRSC00520	1.37e6	1.54e6	1.40e6	1.28e6
CG18577	DRSC15352	1.64e6	1.64e6	1.31e6	1.43e6

Main list, repeating the preview:
gene	amplicon	Kc cell number, rep 1	Kc cell number, rep 2	S2R+ cell number, rep 1	S2R+ cell number, rep 2
Rim2	DRSC00073	1.58e6	1.57e6	1.10e6	1.23e6
Rim2	DRSC00520	1.37e6	1.54e6	1.40e6	1.28e6
CG18577	DRSC15352	1.64e6	1.64e6	1.31e6	1.43e6
Trf	DRSC03462	1.50e6	1.56e6	1.16e6	1.29e6
shg	DRSC04714	1.43e6	1.52e6	1.12e6	1.20e6
CSN5	DRSC16592	1.74e6	1.74e6	1.26e6	1.23e6
CG5126	DRSC00680	1.28e6	1.60e6	1.34e6	1.22e6
Mrp5	DRSC15597	1.28e6	1.22e6	1.13e6	1.25e6
Mrp5	DRSC15598	1.30e6	1.28e6	1.13e6	1.22e6
Fkbp59	DRSC03323	1.67e6	1.71e6	1.24e6	1.44e6
mora	DRSC16594	1.34e6	1.40e6	9.82e5	1.08e6
CG31259	DRSC14366	1.42e6	1.56e6	1.23e6	1.28e6
rl	DRSC07833	1.10e6	1.06e6	1.03e6	1.26e6
rl	DRSC20742	1.41e6	1.44e6	1.07e6	1.17e6
CG30334	DRSC05345	1.46e6	1.44e6	1.00e6	1.10e6
CG15710	DRSC06581	1.50e6	1.58e6	1.15e6	1.32e6
SF2	DRSC16845	1.36e6	1.35e6	9.24e5	1.04e6
primo-2 + primo-1	DRSC16511	1.24e6	1.34e6	1.22e6	1.34e6
CG9706	DRSC11095	1.51e6	1.56e6	1.18e6	1.20e6
Drp1	DRSC00574	1.26e6	1.30e6	8.20e5	8.25e5
TwdlW	DRSC15540	1.38e6	1.41e6	1.09e6	1.19e6
Grl40a	DRSC03677	5.10e5		8.65e5	
AP-2mu	DRSC14090	1.67e6	1.88e6	1.20e6	1.27e6
CG42232	DRSC15018	1.57e6	1.62e6	1.20e6	1.23e6
CG42232	DRSC15019	1.64e6	1.69e6	1.27e6	1.24e6
Aven	DRSC19693	1.66e6	1.51e6	9.95e5	1.18e6
Tektin-A	DRSC01921	1.30e6	1.34e6	1.25e6	1.30e6
Cyp317a1	DRSC07366	1.55e6	1.48e6	1.22e6	1.34e6
Argk2	DRSC10483	1.52e6	1.76e6	1.29e6	1.38e6
CG30034 (retired record)	DRSC05288	1.47e6	1.56e6	1.03e6	1.19e6
MED6	DRSC16500	1.63e6	1.70e6	1.20e6	1.32e6
Hexim	DRSC15490	1.34e6	1.41e6	1.10e6	1.15e6
Dic3	DRSC06058	1.60e6	1.68e6	1.20e6	1.35e6
Zwilch	DRSC15376	1.56e6	1.63e6	1.13e6	1.17e6
Gr98d	DRSC14571	1.51e6	1.59e6	1.04e6	1.15e6
CG8854	DRSC07288	1.33e6	1.35e6	1.14e6	1.16e6
Pino	DRSC00038	1.08e6 (active)	1.10e6	7.85e5	8.89e5
Pino	DRSC00662	1.25e6	1.30e6	8.97e5	1.02e6
Swt1	DRSC20028	1.46e6	1.54e6	1.03e6	1.24e6
tbrd-2	DRSC07020	1.59e6	1.62e6	1.26e6	1.50e6
CG9676	DRSC20204	1.61e6	1.59e6	1.18e6	1.22e6
CG32196	DRSC09548	1.74e6	1.90e6	1.27e6	1.46e6
aurB	DRSC03548	1.28e6	1.38e6	9.91e5	1.03e6
Tasp1	DRSC10495	1.57e6	1.61e6	1.27e6	1.36e6
CG5381	DRSC02852	1.60e6	1.76e6	1.37e6	1.51e6
IleRS	DRSC11667	1.72e6	1.74e6	1.23e6	1.32e6
qless	DRSC15103	1.51e6	1.51e6	1.00e6	1.09e6
qless	DRSC15507	1.58e6	1.58e6	1.05e6	1.11e6
CG16704	DRSC00475	1.58e6	1.46e6	1.20e6	1.30e6
Dus4	DRSC02066	1.27e6	1.35e6	1.28e6	1.25e6
Mgat4b	DRSC10256	1.40e6	1.39e6	1.18e6	1.30e6
CG6006	DRSC13137	1.42e6	1.52e6	1.06e6	1.14e6
CG6006	DRSC15946	1.53e6	1.60e6	1.25e6	1.29e6
CG9839	DRSC16574	1.45e6	1.56e6	1.17e6	1.28e6
zen2	DRSC12633	1.29e6	1.43e6	1.19e6	1.27e6
CG17266	DRSC04979	1.88e6	1.93e6	1.44e6	1.62e6
CG34030	DRSC08866	1.48e6	1.74e6	1.15e6	1.29e6
Pld	DRSC04854	1.29e6	1.38e6	1.18e6	1.20e6
vig	DRSC03630	1.35e6	1.45e6	9.81e5	1.17e6
vig	DRSC03631	1.26e6	1.34e6	1.21e6	1.22e6
